In paper PMC11042255:
Results are given in words; binding and its absence hold for the method and conditions named. Binding seen in cells or lysates may run through a third protein. These calls come from enrichment with a bait or labelling near it, and not all partners need be listed.

Sequences of proteins named here, by UniProt entry; tags and fusion partners are left off. A change or cut given only in a name is not applied to a line headed by its entry.
UniProt Q8R4B8: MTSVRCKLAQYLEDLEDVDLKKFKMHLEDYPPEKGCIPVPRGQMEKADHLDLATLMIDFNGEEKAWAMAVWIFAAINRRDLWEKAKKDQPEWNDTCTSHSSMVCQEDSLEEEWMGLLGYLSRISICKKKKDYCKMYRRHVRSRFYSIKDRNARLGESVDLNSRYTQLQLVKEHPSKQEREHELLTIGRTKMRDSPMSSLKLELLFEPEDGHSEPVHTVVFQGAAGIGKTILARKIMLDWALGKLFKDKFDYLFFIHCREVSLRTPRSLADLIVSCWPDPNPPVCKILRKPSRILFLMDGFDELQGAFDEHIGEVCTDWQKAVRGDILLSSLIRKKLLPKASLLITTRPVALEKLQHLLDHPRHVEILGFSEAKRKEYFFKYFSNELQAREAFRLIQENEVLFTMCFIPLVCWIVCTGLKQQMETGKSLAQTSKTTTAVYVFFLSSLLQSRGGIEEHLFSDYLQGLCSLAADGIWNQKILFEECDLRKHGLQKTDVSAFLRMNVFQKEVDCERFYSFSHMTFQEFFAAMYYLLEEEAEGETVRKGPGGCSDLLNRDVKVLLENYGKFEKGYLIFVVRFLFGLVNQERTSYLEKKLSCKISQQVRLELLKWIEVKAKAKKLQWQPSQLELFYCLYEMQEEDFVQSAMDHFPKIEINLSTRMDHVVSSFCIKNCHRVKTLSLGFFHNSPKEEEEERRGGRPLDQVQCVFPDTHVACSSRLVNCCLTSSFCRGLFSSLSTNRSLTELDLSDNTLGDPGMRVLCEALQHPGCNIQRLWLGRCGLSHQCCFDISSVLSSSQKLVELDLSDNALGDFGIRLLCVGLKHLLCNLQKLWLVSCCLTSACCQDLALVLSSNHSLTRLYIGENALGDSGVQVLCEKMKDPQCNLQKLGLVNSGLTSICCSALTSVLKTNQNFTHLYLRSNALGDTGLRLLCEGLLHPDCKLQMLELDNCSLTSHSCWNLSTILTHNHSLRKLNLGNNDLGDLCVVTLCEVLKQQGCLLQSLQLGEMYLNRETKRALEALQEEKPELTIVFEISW
UniProt P46737: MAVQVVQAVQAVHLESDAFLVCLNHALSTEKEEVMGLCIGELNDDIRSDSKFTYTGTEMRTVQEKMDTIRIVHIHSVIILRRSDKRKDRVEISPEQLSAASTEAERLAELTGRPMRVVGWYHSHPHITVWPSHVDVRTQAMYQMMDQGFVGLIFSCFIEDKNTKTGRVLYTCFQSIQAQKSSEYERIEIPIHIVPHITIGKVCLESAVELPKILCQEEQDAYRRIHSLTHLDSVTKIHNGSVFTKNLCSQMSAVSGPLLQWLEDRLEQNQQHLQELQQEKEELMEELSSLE
UniProt Q8VCF0: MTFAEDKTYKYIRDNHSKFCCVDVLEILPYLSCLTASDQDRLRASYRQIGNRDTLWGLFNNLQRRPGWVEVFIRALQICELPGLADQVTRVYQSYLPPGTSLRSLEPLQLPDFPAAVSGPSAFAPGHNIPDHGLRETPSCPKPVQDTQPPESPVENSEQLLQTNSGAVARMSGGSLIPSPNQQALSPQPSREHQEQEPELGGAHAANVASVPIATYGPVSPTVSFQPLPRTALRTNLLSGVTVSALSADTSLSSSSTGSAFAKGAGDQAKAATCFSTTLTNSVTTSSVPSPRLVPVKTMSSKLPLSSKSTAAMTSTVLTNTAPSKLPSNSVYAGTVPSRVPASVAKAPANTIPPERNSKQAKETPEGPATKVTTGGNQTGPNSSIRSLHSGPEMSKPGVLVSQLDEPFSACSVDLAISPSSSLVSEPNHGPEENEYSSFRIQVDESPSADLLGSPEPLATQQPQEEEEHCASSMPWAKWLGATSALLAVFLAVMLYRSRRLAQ
UniProt P63330: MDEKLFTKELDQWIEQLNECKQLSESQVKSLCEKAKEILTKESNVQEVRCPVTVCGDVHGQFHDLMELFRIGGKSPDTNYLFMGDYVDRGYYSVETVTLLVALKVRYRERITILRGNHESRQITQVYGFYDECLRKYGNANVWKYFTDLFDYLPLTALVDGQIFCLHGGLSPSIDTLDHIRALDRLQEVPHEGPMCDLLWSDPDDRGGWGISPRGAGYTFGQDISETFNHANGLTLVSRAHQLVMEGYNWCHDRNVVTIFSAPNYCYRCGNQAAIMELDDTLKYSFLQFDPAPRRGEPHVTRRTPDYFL

biological target: Nlrp3-APEX2 (Nlrp3-APEX-FLAG-IRES-GFP expression construct) (mouse) (UniProt Q8R4B8); assay: proximity labelling; APEX2 proximity biotinylation in Nlrp3-/- iBMDMs expressing Nlrp3-APEX2, with APEX2-P4C as background control; with or without LPS (1 μg/mL, 4 h), then nigericin (20 μM, 20 min) or CL097 (75 μg/mL, 25 min); biotin phenol (500 μM, 45 min), H2O2 (1 min); TMT-based quantitative proteomics of the biotinylated proteins

binding, binds:
Brcc3 (from UniProt P46737 1-291) (enzyme)
Mavs (from UniProt Q8VCF0 1-503)
PP2A (from UniProt P63330) (enzyme)
